Measurements from publication PMC4893161, “The Dynamic Localization of Cytoplasmic Dynein in Neurons Is Driven by Kinesin-1” (Neuron, 2016).

Amino acid sequences for entries named in this document (tags omitted). A change or cut given only in a name is not applied to a line headed by its entry. Residues count along the entry.
UniProt O88485: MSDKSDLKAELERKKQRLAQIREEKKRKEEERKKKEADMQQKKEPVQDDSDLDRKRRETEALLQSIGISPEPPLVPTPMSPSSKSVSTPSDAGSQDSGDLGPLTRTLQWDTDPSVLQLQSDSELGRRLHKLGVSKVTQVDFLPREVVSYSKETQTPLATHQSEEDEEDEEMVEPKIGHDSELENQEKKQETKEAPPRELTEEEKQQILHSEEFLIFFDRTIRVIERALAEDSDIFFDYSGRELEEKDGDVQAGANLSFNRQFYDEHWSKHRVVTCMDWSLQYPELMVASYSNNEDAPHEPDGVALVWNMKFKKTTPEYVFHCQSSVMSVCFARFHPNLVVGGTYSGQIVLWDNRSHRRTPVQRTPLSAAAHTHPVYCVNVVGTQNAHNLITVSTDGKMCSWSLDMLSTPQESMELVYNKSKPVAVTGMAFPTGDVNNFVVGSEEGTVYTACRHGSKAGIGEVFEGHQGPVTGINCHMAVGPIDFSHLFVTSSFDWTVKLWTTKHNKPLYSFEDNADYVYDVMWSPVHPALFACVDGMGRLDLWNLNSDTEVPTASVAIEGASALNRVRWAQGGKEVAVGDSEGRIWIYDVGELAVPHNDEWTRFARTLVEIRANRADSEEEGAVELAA
UniProt Q63100: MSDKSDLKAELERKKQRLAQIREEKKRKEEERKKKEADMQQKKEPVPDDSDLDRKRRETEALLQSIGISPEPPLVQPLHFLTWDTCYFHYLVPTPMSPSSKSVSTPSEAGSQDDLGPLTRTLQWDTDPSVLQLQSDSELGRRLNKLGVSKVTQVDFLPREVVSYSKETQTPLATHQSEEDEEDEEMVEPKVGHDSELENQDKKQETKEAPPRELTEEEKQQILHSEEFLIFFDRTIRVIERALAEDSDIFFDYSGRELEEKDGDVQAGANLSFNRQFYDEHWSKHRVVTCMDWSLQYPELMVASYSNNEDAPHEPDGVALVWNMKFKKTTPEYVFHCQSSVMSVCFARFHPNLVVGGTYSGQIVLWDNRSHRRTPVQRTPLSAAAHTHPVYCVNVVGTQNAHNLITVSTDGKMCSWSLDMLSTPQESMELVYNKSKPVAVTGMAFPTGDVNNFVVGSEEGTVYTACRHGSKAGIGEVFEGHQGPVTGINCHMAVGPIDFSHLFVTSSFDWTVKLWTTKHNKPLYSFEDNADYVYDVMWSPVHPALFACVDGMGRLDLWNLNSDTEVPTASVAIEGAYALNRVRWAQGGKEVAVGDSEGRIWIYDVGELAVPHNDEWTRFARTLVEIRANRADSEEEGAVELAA
UniProt O88447: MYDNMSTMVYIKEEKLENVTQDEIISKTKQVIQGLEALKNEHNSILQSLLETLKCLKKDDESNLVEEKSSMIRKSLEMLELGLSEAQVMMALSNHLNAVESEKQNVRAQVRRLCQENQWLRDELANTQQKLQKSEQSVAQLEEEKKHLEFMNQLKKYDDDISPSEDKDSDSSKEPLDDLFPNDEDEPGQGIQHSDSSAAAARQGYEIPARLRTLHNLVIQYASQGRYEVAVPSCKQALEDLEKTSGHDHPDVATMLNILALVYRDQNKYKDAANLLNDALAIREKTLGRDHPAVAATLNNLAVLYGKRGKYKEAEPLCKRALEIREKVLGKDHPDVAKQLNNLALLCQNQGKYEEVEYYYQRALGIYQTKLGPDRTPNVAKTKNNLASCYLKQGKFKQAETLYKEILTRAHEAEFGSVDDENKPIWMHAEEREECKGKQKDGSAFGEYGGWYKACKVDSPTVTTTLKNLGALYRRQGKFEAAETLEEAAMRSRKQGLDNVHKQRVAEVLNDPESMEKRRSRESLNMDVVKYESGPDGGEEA
UniProt O88448: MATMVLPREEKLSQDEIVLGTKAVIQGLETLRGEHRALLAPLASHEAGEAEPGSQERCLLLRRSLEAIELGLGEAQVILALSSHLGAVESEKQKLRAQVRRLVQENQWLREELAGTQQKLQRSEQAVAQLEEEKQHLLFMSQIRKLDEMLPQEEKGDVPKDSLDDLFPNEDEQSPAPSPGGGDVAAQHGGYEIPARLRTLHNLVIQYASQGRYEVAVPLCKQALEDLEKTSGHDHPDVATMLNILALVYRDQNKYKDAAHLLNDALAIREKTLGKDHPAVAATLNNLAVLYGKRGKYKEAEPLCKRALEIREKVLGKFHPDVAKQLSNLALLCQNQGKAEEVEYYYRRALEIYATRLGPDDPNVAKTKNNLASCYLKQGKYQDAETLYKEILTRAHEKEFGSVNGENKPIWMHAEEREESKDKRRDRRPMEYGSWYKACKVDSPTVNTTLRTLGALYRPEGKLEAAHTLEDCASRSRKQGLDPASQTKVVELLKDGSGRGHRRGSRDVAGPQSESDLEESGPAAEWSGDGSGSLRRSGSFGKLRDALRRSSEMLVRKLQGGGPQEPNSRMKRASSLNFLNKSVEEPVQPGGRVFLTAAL
UniProt P33175, residues 389-637: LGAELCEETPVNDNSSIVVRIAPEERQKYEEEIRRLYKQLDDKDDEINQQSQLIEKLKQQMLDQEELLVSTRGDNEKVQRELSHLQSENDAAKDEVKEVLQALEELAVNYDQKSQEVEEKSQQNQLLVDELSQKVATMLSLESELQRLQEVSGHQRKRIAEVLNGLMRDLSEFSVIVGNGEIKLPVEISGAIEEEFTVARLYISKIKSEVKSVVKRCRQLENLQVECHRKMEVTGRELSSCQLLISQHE

Legend:
[1] = biological target: mCherry-tagged DIC1a WD2AA (alanine mutation of WD2) (UniProt O88485); experiment: co-IP; COS cells cotransfected with mCherry-tagged DIC1a (wild-type or WD mutants) and HA-tagged KLC1 or KLC2; IP with anti-mCherry; western blotting with anti-DIC and anti-HA
[2] = biological target: mCherry-tagged DIC1a WD1AA (alanine mutation of WD1) (UniProt O88485); experiment: as above
[3] = biological target: DIC1a, bait of the yeast two-hybrid screen (UniProt Q63100); experiment: two-hybrid; yeast two-hybrid screen for binding partners of DIC1a

Row | binding [1] | binding [2] | binding [3] | Substance
1 | binds | binds |  | HA-tagged KLC1 (kinesin light chain 1) (from UniProt O88447 1-541)
2 | binds | binds |  | HA-tagged KLC2 (kinesin light chain 2) (from UniProt O88448 1-599)
3 |  |  | binds | KIF5A residues 389–637, isolated in the yeast two-hybrid screen (from UniProt P33175 389-637) (domain or fragment)

No constants are given. Whether binding was seen depends on the method and setting. Binding can be weak; no strength is given. For some assays here: In cells and extracts the contact can be indirect.
